Literature values, collected in patent publication US20020151526A1, “Bile-acid prodrugs of L-dopa and their use in the sustained treatment of parkinsonism” (priority 2000, published 2002).

Conditions: patients; administered alone; cited from earlier work

Compound: N[C@@H](Cc1ccc(O)c(O)c1)C(=O)O [levodopa, L-dihydroxyphenylalanine]
- half-life in plasma: about 50 minutes
